These results are taken from PMC4658663.

Amino acid sequences for entries named in this document (tags omitted).
UniProt P31391: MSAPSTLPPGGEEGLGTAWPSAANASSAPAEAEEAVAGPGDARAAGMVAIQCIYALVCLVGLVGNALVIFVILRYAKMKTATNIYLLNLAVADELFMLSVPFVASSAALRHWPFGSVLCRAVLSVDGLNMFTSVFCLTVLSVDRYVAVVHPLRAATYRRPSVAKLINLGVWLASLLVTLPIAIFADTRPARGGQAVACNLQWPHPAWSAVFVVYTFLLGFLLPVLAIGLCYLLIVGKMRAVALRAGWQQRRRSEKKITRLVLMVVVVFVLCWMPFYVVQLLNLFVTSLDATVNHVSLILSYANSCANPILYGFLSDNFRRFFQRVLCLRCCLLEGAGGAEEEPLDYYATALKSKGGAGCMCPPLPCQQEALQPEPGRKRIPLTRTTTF
UniProt P32745: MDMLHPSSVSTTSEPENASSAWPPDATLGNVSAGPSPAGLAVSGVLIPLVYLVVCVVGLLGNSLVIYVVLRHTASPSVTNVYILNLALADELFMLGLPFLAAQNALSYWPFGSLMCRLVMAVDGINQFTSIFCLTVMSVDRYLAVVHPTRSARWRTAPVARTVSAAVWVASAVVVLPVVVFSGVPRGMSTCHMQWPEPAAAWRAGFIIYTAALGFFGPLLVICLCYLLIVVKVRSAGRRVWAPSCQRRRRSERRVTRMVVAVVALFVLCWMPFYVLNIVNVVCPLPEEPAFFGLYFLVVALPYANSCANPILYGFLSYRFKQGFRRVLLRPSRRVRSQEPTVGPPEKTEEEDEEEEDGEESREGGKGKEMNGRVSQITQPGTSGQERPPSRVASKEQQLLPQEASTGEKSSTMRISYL
UniProt P25100: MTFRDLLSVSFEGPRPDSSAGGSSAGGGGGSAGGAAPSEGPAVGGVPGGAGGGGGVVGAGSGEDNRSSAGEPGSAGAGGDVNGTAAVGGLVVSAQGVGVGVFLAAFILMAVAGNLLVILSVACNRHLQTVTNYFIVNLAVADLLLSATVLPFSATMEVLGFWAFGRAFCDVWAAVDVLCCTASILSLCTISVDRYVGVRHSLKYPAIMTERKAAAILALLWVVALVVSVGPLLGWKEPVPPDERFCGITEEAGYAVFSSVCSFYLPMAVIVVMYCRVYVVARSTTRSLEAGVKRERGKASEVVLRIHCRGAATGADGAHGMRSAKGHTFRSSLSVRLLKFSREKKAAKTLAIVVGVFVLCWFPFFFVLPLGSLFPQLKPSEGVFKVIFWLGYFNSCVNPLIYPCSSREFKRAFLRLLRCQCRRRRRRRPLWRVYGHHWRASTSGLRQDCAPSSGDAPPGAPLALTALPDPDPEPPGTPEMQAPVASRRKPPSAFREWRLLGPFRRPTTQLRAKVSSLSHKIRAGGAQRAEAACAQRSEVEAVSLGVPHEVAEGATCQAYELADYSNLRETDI
UniProt P32302: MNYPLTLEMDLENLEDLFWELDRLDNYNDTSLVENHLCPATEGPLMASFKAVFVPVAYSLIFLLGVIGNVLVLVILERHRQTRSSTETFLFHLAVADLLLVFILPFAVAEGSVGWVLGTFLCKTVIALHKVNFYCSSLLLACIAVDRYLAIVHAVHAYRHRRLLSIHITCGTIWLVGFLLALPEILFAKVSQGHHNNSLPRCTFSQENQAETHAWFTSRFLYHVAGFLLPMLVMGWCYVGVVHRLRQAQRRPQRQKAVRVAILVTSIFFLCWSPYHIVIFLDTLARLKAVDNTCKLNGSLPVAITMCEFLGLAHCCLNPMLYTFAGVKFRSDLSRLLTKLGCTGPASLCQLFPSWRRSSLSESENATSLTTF
UniProt P49682: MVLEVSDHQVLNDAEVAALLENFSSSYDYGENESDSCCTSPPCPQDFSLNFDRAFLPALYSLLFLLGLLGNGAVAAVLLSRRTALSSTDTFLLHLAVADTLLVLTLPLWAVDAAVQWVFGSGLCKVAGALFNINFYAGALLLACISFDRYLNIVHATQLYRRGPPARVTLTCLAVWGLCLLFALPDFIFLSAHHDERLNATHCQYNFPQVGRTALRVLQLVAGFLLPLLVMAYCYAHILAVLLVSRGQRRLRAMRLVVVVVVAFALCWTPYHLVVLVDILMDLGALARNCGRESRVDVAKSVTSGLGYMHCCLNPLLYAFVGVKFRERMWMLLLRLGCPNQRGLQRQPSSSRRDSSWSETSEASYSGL
UniProt Q9NS75: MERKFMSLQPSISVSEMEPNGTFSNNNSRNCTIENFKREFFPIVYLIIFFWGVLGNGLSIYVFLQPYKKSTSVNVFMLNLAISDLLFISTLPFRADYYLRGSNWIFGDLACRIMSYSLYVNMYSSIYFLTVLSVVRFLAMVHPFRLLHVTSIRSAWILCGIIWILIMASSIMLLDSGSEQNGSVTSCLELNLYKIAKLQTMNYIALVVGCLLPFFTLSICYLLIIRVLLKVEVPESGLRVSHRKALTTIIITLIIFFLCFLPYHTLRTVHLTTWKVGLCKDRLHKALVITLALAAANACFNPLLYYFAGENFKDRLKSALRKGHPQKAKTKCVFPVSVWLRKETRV
UniProt P31946: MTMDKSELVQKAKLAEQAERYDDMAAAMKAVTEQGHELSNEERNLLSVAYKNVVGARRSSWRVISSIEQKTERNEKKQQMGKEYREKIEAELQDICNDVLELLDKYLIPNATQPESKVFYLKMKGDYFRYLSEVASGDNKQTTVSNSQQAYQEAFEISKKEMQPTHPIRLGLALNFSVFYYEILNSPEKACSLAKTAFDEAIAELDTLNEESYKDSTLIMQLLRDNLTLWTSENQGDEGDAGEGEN
UniProt Q9H4A6: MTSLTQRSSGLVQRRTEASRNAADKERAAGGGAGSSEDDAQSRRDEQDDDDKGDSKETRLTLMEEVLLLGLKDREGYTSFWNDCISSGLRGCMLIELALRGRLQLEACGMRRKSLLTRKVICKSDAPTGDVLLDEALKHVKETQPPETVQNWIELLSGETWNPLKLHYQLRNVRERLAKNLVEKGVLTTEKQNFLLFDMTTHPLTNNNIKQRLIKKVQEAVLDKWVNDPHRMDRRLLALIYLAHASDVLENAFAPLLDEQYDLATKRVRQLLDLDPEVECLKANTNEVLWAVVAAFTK
UniProt Q86W92: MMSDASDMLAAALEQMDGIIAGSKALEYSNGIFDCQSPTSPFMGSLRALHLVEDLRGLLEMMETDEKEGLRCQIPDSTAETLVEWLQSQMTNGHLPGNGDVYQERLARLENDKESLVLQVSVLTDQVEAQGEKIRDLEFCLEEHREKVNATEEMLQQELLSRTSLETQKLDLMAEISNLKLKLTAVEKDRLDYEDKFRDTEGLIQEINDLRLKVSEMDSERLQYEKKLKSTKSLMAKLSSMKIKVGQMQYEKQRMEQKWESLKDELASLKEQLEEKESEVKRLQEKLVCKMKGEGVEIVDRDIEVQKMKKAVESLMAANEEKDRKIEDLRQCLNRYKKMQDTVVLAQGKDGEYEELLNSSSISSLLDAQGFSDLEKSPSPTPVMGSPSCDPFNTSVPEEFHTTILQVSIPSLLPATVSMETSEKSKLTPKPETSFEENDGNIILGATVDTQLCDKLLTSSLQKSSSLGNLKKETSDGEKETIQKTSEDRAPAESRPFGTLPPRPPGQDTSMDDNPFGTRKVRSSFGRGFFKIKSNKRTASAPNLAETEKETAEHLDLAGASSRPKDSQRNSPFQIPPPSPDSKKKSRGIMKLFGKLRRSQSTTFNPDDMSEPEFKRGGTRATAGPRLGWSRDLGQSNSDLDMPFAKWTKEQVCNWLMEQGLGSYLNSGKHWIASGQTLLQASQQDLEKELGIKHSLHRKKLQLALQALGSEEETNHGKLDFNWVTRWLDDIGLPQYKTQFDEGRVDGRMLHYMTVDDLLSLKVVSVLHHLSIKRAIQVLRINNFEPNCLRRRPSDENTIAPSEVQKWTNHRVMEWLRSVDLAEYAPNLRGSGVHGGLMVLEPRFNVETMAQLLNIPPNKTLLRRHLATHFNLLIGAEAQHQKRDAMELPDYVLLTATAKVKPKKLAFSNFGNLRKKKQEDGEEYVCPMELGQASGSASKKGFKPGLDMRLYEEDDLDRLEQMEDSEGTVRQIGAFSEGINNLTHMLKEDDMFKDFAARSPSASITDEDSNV
UniProt Q13136: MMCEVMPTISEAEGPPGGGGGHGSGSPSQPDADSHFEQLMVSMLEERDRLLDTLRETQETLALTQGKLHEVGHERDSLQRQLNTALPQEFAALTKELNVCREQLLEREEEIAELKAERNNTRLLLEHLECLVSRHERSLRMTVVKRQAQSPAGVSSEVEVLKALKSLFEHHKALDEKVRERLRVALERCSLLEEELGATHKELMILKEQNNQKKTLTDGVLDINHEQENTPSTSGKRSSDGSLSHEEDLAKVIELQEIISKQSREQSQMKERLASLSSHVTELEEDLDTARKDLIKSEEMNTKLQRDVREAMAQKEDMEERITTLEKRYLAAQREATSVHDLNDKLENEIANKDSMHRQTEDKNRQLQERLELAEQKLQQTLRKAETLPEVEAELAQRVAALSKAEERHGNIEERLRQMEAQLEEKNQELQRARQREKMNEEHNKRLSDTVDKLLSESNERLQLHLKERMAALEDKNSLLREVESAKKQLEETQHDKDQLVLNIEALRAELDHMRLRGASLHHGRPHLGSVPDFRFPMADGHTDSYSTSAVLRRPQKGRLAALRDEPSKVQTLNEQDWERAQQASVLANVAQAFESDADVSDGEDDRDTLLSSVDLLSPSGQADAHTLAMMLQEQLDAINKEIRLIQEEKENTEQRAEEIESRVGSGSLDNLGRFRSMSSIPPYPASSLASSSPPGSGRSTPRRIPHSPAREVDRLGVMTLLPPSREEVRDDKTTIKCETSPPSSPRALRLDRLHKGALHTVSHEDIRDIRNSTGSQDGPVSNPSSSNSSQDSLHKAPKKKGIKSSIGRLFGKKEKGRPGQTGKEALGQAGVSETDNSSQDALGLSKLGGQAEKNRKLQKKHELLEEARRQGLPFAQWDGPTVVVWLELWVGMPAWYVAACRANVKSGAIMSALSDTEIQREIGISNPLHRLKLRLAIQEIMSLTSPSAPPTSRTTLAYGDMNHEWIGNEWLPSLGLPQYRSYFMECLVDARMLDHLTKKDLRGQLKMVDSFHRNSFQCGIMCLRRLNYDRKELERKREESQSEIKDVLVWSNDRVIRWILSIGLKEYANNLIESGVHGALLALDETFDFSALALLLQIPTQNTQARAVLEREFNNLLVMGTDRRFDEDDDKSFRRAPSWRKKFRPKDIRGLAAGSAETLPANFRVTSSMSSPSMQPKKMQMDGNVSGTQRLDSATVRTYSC
UniProt P68400: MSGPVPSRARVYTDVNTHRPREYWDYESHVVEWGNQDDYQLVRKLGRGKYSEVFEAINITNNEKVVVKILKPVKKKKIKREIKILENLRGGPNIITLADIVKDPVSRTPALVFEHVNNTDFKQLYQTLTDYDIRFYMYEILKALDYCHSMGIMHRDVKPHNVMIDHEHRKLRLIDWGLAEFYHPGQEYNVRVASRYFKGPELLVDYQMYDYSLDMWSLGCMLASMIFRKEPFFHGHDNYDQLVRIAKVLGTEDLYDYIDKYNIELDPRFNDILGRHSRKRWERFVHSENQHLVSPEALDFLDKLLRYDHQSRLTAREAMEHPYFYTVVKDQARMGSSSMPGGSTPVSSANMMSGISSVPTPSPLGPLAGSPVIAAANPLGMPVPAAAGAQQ
UniProt P62258: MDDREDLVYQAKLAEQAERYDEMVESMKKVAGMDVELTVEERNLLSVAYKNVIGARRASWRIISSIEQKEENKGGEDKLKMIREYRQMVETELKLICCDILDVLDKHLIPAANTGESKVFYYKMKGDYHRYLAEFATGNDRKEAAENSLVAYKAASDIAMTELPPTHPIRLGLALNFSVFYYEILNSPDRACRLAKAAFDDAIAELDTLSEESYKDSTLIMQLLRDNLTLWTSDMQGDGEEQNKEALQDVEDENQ
UniProt O00519: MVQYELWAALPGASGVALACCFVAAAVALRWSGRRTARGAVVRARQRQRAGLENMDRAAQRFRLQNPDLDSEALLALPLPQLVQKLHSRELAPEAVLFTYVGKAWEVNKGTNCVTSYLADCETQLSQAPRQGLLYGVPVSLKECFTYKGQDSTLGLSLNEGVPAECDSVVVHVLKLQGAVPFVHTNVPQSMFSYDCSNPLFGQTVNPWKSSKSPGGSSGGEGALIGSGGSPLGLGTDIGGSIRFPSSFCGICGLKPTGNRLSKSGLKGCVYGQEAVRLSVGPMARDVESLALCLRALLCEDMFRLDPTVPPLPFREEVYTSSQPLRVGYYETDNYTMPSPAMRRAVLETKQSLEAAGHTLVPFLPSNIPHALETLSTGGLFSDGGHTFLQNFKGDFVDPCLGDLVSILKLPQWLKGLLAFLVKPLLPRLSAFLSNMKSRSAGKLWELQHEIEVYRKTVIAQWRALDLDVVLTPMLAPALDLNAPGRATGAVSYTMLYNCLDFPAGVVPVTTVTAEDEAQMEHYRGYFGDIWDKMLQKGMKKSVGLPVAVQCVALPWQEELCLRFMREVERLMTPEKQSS

These are yes or no findings as the source states them, for the method shown. In cells and extracts the contact can be indirect. A yes stands for co-enrichment or nearness to the bait. Other partners may have been found. For part of these data: Where a sequence is shown, tags or fusion partners need not be part of it.

Assay [1] deals with SSTR4 (somatostatin receptor 4), TAP-tagged (human) (UniProt P31391). Nature of the assay: affinity purification with mass spectrometry; TAP/MS; TAP-tagged bait transfected alone (or with empty vector) in HEK293T cells; TEV cleavage omitted; eluates on Velos-Pro Orbitrap Elite; protein FDR 2.5%.
In assay [2] the target is SSTR3 (somatostatin receptor 3), TAP-tagged (human) (UniProt P32745). Described as above.
For the next assay, the target named is TAP–ADRA1D (human) (UniProt P25100). Nature of the assay: affinity purification with mass spectrometry; TAP/MS; TAP–ADRA1D transfected in SW480 cells.
Assay [3] addresses CXCR2 (chemokine receptor), TAP-tagged (human) (UniProt P25025). The assay is described as follows: affinity purification with mass spectrometry; TAP/MS; TAP-tagged bait transfected alone (or with empty vector) in HEK293T cells; TEV cleavage omitted; eluates on Velos-Pro Orbitrap Elite; protein FDR 2.5%.
For assay [4], the target named is CXCR5 (chemokine receptor), TAP-tagged (human) (UniProt P32302). Described as above.
Assay [5] deals with CXCR3 (chemokine receptor), TAP-tagged (human) (UniProt P49682). The description is as above.
Assay [6] concerns the target CYSLTR2 (cysteinyl leukotriene 2 receptor), TAP-tagged (human) (UniProt Q9NS75). Described as above.
For assay [7], the target named is T1, GALR1 (galanin type I receptor), TAP-tagged (human) (UniProt P47211).
T1 sequence: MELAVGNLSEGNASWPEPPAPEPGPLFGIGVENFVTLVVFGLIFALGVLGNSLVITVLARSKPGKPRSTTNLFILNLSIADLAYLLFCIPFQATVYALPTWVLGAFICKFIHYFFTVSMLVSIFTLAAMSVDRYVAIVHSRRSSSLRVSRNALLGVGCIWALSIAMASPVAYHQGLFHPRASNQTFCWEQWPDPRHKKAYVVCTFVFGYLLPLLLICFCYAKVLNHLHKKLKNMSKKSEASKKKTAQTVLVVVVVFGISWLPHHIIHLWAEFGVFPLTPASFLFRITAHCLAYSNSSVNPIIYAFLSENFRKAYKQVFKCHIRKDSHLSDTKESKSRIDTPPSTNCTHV
Described as above.

Turning to YWHAB (from UniProt P31946 1-246), the binding result in assay [1] was “binds”.

As to GOLPH3 (from UniProt Q9H4A6 1-298), the binding result in assay [2] is “binds”.

As for PPFIBP1 (from UniProt Q86W92 1-1011), in the assay with TAP–ADRA1D (human), the binding entry is given as “binds”.

Take PPFIA1 (from UniProt Q13136 1-1202): the binding result with TAP–ADRA1D (human) is “binds”.

Regarding CSNK2A1 (from UniProt P68400 1-391), the binding result in assay [2] is “binds”.

In the case of YWHAE (from UniProt P62258 1-255), the binding result in assay [1] is listed as “binds”.

On to FAAH (from UniProt O00519 1-579), for which the binding result in assay [3] is given as “binds”.

B1: GHDC (protein, UniProt Q8N2G8 18-530)
chain: LLRQQRSQDARLSWLAGLQHRVAWGALVWAATWQRRRLEQSTLHVHQSQQQALRWCLQGAQRPHCSLRRSTDISTFRNHLPLTKASQTQQEDSGEQPLPPTSNQDLGEASLQATLLGLAALNKAYPEVLAQGRTARVTLTSPWPRPLPWPGNTLGQVGTPGTKDPRALLLDALRSPGLRALEAGTAVELLDVFLGLETDGEELAGAIAAGNPGAPLRERAAELREALEQGPRGLALRLWPKLQVVVTLDAGGQAEAVAALGALWCQGLAFFSPAYAASGGVLGLNLQPEQPHGLYLLPPGAPFIELLPVKEGTQEEAASTLLLAEAQQGKEYELVLTDRASLTRCRLGDVVRVVGAYNQCPVVRFICRLDQTLSVRGEDIGEDLFSEALGRAVGQWAGAKLLDHGCVESSILDSSAGSAPHYEVFVALRGLRNLSEENRDKLDHCLQEASPRYKSLRFWGSVGPARVHLVGQGAFRALRAALAACPSSPFPPAMPRVLRHRHLAQCLQERVVS
With B1, the binding result in assay [4] and in assay [5] was “binds” each time.

B2: MPP7 (protein, UniProt Q5T2T1 1-576)
chain: MPALSTGSGSDTGLYELLAALPAQLQPHVDSQEDLTFLWDMFGEKSLHSLVKIHEKLHYYEKQSPVPILHGAAALADDLAEELQNKPLNSEIRELLKLLSKPNVKALLSVHDTVAQKNYDPVLPPMPEDIDDEEDSVKIIRLVKNREPLGATIKKDEQTGAIIVARIMRGGAADRSGLIHVGDELREVNGIPVEDKRPEEIIQILAQSQGAITFKIIPGSKEETPSKEGKMFIKALFDYNPNEDKAIPCKEAGLSFKKGDILQIMSQDDATWWQAKHEADANPRAGLIPSKHFQERRLALRRPEILVQPLKVSNRKSSGFRKSFRLSRKDKKTNKSMYECKKSDQYDTADVPTYEEVTPYRRQTNEKYRLVVLVGPVGVGLNELKRKLLISDTQHYGVTVPHTTRARRSQESDGVEYIFISKHLFETDVQNNKFIEYGEYKNNYYGTSIDSVRSVLAKNKVCLLDVQPHTVKHLRTLEFKPYVIFIKPPSIERLRETRKNAKIISSRDDQGAAKPFTEEDFQEMIKSAQIMESQYGHLFDKIIINDDLTVAFNELKTTFDKLETETHWVPVSWLHS
With B2, in assay [6], the binding entry was “binds”.

B3: YWHAH (protein, UniProt Q04917 1-246)
chain: MGDREQLLQRARLAEQAERYDDMASAMKAVTELNEPLSNEDRNLLSVAYKNVVGARRSSWRVISSIEQKTMADGNEKKLEKVKAYREKIEKELETVCNDVLSLLDKFLIKNCNDFQYESKVFYLKMKGDYYRYLAEVASGEKKNSVVEASEAAYKEAFEISKEQMQPTHPIRLGLALNFSVFYYEIQNAPEQACLLAKQAFDDAIAELDTLNEDSYKDSTLIMQLLRDNLTLWTSDQQDEEAGEGN
For the molecule B3, the binding result in assay [1] is “binds”.

B4: LIN7A (protein, UniProt O14910 1-233)
chain: MLKPSVTSAPTADMATLTVVQPLTLDRDVARAIELLEKLQESGEVPVHKLQSLKKVLQSEFCTAIREVYQYMHETITVNGCPEFRARATAKATVAAFAASEGHSHPRVVELPKTDEGLGFNVMGGKEQNSPIYISRIIPGGVAERHGGLKRGDQLLSVNGVSVEGEHHEKAVELLKAAKDSVKLVVRYTPKVLEEMEARFEKLRTARRRQQQQLLIQQQQQQQQQQTQQNHMS
In the case of B4, in the assay with TAP–ADRA1D (human), the binding result is on record as “binds”.

B5: LIN7C (protein, UniProt Q9NUP9 1-197)
chain: MAALGEPVRLERDICRAIELLEKLQRSGEVPPQKLQALQRVLQSEFCNAVREVYEHVYETVDISSSPEVRANATAKATVAAFAASEGHSHPRVVELPKTEEGLGFNIMGGKEQNSPIYISRIIPGGIADRHGGLKRGDQLLSVNGVSVEGEHHEKAVELLKAAQGKVKLVVRYTPKVLEEMESRFEKMRSAKRRQQT
Regarding B5, the binding result in assay [6] was “binds”.

B6: PDZ domain-containing 8 (PDZD8) (protein, UniProt Q8NEN9 1-1154)
chain: MGLLLMILASAVLGSFLTLLAQFFLLYRRQPEPPADEAARAGEGFRYIKPVPGLLLREYLYGGGRDEEPSGAAPEGGATPTAAPETPAPPTRETCYFLNATILFLFRELRDTALTRRWVTKKIKVEFEELLQTKTAGRLLEGLSLRDVFLGETVPFIKTIRLVRPVVPSATGEPDGPEGEALPAACPEELAFEAEVEYNGGFHLAIDVDLVFGKSAYLFVKLSRVVGRLRLVFTRVPFTHWFFSFVEDPLIDFEVRSQFEGRPMPQLTSIIVNQLKKIIKRKHTLPNYKIRFKPFFPYQTLQGFEEDEEHIHIQQWALTEGRLKVTLLECSRLLIFGSYDREANVHCTLELSSSVWEEKQRSSIKTVELIKGNLQSVGLTLRLVQSTDGYAGHVIIETVAPNSPAAIADLQRGDRLIAIGGVKITSTLQVLKLIKQAGDRVLVYYERPVGQSNQGAVLQDNFGQLEENFLSSSCQSGYEEEAAGLTVDTESRELDSEFEDLASDVRAQNEFKDEAQSLSHSPKRVPTTLSIKPLGAISPVLNRKLAVGSHPLPPKIQSKDGNKPPPLKTSEITDPAQVSKPTQGSAFKPPVPPRPQAKVPLPSADAPNQAEPDVLVEKPEKVVPPPLVDKSAEKQAKNVDAIDDAAAPKQFLAKQEVAKDVTSETSCPTKDSSDDRQTWESSEILYRNKLGKWTRTRASCLFDIEACHRYLNIALWCRDPFKLGGLICLGHVSLKLEDVALGCLATSNTEYLSKLRLEAPSPKAIVTRTALRNLSMQKGFNDKFCYGDITIHFKYLKEGESDHHVVTNVEKEKEPHLVEEVSVLPKEEQFVGQMGLTENKHSFQDTQFQNPTWCDYCKKKVWTKAASQCMFCAYVCHKKCQEKCLAETSVCGATDRRIDRTLKNLRLEGQETLLGLPPRVDAEASKSVNKTTGLTRHIINTSSRLLNLRQVSKTRLSEPGTDLVEPSPKHTPNTSDNEGSDTEVCGPNSPSKRGNSTGIKLVRKEGGLDDSVFIAVKEIGRDLYRGLPTEERIQKLEFMLDKLQNEIDQELEHNNSLVREEKETTDTRKKSLLSAALAKSGERLQALTLLMIHYRAGIEDIETLESLSLDQHSKKISKYTDDTEEDLDNEISQLIDSQPFSSISDDLFGPSESV
Consider B6, for which, in assay [7], the binding result is on record as “binds”.

B7: PLD3 (protein, UniProt Q8IV08 1-490)
chain: MKPKLMYQELKVPAEEPANELPMNEIEAWKAAEKKARWVLLVLILAVVGFGALMTQLFLWEYGDLHLFGPNQRPAPCYDPCEAVLVESIPEGLDFPNASTGNPSTSQAWLGLLAGAHSSLDIASFYWTLTNNDTHTQEPSAQQGEEVLRQLQTLAPKGVNVRIAVSKPSGPQPQADLQALLQSGAQVRMVDMQKLTHGVLHTKFWVVDQTHFYLGSANMDWRSLTQVKELGVVMYNCSCLARDLTKIFEAYWFLGQAGSSIPSTWPRFYDTRYNQETPMEICLNGTPALAYLASAPPPLCPSGRTPDLKALLNVVDNARSFIYVAVMNYLPTLEFSHPHRFWPAIDDGLRRATYERGVKVRLLISCWGHSEPSMRAFLLSLAALRDNHTHSDIQVKLFVVPADEAQARIPYARVNHNKYMVTERATYIGTSNWSGNYFTETAGTSLLVTQNGRGGLRSQLEAIFLRDWDSPYSHDLDTSADSVGNACRLL
With B7, the binding result in assay [6] is reported as “binds”.
